Measurements: the supplement of paper PMC10849652
The other results are listed elsewhere or left out.

Sequences of proteins named here, by UniProt entry; tags and fusion partners are left off. A change or cut given only in a name is not applied to a line headed by its entry.
UniProt Q49B96: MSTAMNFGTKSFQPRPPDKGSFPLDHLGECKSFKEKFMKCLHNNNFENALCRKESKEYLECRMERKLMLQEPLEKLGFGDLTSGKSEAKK
UniProt P61923: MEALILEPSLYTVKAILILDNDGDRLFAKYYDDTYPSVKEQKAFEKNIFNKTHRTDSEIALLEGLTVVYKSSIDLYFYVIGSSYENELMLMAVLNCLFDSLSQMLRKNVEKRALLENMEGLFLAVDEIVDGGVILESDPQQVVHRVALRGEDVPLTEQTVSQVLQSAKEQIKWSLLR
UniProt Q86VU5: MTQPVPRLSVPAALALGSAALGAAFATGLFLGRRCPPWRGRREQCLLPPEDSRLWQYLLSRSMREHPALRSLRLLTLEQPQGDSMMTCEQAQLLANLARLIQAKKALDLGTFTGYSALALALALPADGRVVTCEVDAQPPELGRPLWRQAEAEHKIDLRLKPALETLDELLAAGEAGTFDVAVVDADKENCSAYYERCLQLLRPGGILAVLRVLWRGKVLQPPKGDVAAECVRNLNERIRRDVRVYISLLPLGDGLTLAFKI
UniProt P55060: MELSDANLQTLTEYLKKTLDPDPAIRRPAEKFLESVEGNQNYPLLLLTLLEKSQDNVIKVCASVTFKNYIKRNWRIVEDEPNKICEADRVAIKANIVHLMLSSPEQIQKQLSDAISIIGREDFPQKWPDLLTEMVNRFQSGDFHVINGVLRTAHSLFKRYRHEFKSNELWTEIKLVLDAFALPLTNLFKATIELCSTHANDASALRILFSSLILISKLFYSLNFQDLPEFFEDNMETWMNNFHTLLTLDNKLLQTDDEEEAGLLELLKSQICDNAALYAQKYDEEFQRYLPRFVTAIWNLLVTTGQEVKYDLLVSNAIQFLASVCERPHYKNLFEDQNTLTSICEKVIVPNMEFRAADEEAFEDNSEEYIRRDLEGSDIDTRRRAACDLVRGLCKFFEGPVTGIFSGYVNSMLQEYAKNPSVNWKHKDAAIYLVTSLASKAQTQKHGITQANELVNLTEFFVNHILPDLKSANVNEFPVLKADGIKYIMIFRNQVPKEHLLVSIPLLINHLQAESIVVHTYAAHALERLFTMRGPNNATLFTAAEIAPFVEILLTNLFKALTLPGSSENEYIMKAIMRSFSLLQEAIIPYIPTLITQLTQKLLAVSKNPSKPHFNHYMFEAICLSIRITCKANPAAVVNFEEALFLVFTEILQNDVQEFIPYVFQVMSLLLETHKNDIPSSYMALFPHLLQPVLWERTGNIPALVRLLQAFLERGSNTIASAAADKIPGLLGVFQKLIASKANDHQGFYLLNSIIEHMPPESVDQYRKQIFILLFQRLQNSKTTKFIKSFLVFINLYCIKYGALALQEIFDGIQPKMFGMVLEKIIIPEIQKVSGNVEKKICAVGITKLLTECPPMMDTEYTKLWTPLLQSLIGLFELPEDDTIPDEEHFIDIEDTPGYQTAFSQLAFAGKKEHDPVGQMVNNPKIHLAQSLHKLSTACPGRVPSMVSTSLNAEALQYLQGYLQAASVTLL
UniProt P19784, whole entry, looked up: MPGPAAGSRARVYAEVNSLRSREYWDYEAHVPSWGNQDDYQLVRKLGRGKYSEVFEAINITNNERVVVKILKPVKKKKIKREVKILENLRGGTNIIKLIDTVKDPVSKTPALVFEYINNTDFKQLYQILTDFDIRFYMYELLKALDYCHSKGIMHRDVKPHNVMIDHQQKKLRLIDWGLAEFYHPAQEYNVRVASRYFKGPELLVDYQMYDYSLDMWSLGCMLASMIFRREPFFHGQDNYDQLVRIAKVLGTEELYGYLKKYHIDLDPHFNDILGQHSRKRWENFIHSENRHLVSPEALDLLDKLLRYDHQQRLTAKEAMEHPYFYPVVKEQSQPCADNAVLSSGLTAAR
UniProt Q9UNS2: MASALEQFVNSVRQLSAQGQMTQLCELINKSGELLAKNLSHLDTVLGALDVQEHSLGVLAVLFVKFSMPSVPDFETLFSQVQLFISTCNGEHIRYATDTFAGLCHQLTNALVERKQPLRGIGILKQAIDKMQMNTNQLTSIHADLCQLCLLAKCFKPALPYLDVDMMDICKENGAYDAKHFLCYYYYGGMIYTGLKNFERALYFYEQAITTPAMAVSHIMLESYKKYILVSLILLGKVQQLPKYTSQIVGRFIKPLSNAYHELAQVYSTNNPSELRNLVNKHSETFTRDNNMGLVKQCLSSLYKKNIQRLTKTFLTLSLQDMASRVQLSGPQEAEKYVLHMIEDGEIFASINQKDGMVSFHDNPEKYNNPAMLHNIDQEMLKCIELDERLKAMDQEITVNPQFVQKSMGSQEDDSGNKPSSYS
UniProt Q99829: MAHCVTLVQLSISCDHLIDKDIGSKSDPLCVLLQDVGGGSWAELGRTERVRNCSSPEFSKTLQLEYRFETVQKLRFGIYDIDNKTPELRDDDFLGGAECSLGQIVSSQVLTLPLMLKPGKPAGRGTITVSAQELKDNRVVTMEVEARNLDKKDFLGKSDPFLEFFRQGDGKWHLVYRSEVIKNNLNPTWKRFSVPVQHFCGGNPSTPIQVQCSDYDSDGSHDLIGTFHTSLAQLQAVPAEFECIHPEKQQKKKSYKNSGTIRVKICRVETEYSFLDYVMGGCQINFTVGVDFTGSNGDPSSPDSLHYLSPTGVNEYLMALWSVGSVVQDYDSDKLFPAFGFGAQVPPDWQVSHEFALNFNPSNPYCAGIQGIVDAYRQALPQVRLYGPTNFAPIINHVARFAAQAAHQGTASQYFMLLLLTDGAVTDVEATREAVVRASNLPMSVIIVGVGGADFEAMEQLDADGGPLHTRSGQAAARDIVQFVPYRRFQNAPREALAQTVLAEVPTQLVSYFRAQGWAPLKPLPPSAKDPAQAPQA
UniProt Q7KZN9: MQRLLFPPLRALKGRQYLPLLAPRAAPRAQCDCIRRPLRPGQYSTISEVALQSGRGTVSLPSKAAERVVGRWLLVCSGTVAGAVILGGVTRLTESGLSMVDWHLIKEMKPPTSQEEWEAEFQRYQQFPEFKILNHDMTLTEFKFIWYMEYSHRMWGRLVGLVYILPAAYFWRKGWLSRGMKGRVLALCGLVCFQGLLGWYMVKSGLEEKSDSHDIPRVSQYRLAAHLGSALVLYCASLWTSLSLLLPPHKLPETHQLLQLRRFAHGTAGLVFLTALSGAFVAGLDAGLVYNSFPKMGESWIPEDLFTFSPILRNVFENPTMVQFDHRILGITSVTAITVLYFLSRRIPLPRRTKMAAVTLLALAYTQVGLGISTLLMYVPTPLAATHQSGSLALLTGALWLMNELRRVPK
UniProt Q9NZJ6: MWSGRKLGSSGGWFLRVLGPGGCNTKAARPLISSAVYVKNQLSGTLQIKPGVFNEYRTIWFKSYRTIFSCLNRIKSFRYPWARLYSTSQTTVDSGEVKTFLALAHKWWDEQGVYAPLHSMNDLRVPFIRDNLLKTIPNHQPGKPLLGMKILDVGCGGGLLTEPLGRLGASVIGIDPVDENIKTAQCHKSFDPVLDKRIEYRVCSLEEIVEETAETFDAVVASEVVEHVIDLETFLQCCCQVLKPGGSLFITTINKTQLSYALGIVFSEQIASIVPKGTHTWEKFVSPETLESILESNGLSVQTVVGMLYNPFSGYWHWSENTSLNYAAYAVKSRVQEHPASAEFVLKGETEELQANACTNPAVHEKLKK
UniProt Q08257: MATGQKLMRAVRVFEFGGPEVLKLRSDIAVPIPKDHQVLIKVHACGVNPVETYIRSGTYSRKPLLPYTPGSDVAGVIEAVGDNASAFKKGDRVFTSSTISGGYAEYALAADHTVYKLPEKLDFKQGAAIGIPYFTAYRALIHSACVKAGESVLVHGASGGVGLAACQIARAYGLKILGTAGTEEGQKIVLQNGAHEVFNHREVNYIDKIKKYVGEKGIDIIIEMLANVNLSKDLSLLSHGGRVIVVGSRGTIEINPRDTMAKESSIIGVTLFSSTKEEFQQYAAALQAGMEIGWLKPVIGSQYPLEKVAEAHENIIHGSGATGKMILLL
UniProt Q86X83, whole entry, looked up: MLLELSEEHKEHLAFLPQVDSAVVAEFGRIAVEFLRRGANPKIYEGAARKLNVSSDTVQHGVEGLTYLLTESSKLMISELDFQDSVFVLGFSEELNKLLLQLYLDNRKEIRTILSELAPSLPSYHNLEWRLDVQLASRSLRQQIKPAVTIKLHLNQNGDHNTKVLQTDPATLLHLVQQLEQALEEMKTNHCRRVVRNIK
UniProt Q92793, whole entry, looked up: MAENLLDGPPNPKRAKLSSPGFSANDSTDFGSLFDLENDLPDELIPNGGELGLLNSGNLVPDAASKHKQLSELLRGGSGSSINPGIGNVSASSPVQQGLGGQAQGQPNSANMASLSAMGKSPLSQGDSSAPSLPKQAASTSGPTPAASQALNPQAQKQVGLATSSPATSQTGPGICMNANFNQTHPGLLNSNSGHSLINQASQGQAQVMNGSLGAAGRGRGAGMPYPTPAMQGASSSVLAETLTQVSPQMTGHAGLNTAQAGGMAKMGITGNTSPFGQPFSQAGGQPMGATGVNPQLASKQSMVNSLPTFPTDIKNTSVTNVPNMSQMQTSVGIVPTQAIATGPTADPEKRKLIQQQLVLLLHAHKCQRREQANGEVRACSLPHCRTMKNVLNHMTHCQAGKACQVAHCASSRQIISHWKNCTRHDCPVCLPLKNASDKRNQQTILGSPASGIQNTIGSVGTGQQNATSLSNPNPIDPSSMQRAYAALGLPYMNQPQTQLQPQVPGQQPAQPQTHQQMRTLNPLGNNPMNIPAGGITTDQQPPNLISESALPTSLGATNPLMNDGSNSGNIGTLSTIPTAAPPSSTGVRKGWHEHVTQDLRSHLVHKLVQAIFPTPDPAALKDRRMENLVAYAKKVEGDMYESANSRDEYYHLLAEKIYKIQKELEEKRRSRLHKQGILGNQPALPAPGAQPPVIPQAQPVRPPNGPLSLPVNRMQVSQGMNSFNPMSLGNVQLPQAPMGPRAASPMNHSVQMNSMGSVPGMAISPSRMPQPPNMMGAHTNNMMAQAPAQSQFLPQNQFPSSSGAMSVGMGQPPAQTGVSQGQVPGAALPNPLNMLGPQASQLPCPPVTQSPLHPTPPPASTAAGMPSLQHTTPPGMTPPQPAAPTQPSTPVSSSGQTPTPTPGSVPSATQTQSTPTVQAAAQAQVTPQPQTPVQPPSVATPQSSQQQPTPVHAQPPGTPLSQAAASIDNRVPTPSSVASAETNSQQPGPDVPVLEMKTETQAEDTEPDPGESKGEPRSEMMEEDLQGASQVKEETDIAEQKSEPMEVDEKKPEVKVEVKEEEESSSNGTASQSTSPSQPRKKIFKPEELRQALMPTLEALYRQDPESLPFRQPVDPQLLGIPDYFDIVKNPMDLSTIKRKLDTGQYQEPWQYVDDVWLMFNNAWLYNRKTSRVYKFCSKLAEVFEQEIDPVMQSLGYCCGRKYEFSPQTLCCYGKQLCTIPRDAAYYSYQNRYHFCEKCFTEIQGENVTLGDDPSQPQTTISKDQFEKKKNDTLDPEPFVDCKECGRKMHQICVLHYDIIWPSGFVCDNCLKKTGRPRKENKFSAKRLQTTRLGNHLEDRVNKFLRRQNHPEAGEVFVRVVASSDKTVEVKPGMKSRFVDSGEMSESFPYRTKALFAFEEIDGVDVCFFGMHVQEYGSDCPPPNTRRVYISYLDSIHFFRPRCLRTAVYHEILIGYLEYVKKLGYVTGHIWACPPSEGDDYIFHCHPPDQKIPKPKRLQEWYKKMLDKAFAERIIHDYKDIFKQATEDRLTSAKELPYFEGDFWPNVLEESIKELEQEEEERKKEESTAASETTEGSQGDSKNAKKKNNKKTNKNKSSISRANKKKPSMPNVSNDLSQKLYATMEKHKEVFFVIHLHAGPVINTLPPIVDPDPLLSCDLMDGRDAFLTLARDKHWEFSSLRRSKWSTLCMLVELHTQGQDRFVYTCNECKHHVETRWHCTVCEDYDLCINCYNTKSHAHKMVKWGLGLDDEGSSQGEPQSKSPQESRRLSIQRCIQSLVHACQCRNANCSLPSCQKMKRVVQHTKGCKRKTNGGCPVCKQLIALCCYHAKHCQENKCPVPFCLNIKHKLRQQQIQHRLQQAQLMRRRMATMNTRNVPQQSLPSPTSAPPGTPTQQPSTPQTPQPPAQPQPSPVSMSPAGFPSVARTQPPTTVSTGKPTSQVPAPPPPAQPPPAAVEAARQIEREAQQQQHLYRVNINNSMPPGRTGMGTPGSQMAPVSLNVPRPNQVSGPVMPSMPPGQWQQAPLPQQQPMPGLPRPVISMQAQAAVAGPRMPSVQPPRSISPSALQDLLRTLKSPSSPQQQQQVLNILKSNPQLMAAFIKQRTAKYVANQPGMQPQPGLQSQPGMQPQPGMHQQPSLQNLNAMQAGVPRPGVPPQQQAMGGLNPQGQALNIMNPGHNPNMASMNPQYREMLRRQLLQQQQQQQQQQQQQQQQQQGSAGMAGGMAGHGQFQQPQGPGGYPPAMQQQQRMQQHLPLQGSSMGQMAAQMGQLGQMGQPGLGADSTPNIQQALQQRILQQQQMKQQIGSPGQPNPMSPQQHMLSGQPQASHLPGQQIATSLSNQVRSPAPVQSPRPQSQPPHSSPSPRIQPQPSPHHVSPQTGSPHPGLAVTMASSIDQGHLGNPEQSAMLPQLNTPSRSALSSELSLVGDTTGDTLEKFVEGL

Experiments:
Assay in all cases: log2 fold change, soluble protein after heating vs DMSO (PISA); higher = thermal stabilisation; K562 cells, 10 uM, 30 min; active = over 0.2 and 3.5 SD of the protein, either way, in both replicates (recomputed)
[1] = compound: CC1=C(C=C(C=C1)NC(=O)C2=CC(=CC=C2)C(C)(C)C#N)NC3=CC4=C(C=C3)N=CN(C4=O)C
Summary of the method: (§1)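 Soluble protein was quantified by TMTpro 16plex LC-MS/MS after channel sums were equalised. It was obtained as the supernatant after 21,000xg for 90 min from pooled aliquots of K562 cells (2×10^6 cells/mL, 10 μM compound, 30 min) heated for 3 min across 48°C-58°C and extracted in PBS with 0.5% NP-40 at 4°C. Thermal stability values are relative to control samples and come from duplicates. They are given as log2 fold changes.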

[2] = compound: CC1=C(C=C(C=C1)NC(=O)C2=CC(=CC=C2)N(C)C)NC(=O)C3=CC=C(C=C3)O
Summary of the method: as §1

[3] = compound: CC1=CC=C(C=C1)SC2=C3C=C(SC3=CN=C2)C(=O)N
Summary of the method: as §1

[4] = compound: CC1=NC(=CC=C1)C2=C(N=C(N2)C(C)(C)C)C3=CC4=NC=CN=C4C=C3
Summary of the method: as §1

Nexturastat A = compound: CCCCN(Cc1ccc(C(=O)NO)cc1)C(=O)Nc1ccccc1 [Nexturastat A]
Summary of the method: as §1

vemurafenib = compound: CCCS(=O)(=O)Nc1ccc(F)c(C(=O)c2c[nH]c3ncc(-c4ccc(Cl)cc4)cc23)c1F [vemurafenib]
Summary of the method: as §1

[5] = compound: CCCS(=O)(=O)Nc1ccc(F)c(C(=O)c2c[nH]c3ncc(Cl)cc23)c1F
Summary of the method: as §1

[6] = compound: CCCc1cc(C)[nH]c(=O)c1CNC(=O)c1cc(-c2ccnc(N3CCN(C)CC3)c2)cc2c1cnn2C(C)C
Summary of the method: as §1

givinostat = compound: CCN(CC)Cc1ccc2cc(COC(=O)Nc3ccc(C(=O)NO)cc3)ccc2c1 [givinostat]
Summary of the method: as §1

barasertib = compound: CCN(CCCOc1ccc2c(Nc3cc(CC(=O)Nc4cccc(F)c4)[nH]n3)ncnc2c1)CCOP(=O)(O)O [barasertib]
Summary of the method: as §1

[7] = compound: CC[C@@H]1C(=O)N(C)c2cnc(Nc3ccc(C(=O)NC4CCN(C)CC4)cc3OC)nc2N1C1CCCC1
Summary of the method: as §1

volasertib = compound: CC[C@@H]1C(=O)N(C)c2cnc(Nc3ccc(C(=O)N[C@H]4CC[C@H](N5CCN(CC6CC6)CC5)CC4)cc3OC)nc2N1C(C)C [volasertib]
Summary of the method: as §1

[8] = compound: CC[C@H](C)N1C=C(C2=C(C=C(C=C21)C3=CN=C(C=C3)N4CCNCC4)C(=O)NCC5=C(C=C(NC5=O)C)C)C
Summary of the method: as §1

epoxomicin = compound: CC[C@H](C)[C@@H](C(=O)N[C@@H]([C@@H](C)O)C(=O)N[C@@H](CC(C)C)C(=O)[C@]1(CO1)C)NC(=O)[C@H]([C@@H](C)CC)N(C)C(=O)C [epoxomicin]
Summary of the method: as §1

[9] = compound: CCn1c(C(=O)N(C2CC2)C2CC2)cc2c3c(ncn3C)c(Nc3cc(C)n(C)n3)nc21
Summary of the method: as §1

[10] = compound: CCn1cc(-c2ccnc3[nH]c(-c4cccc(CN(C)C)c4)cc23)c(-c2ccc(NC(=O)N(C)C)cc2)n1
Summary of the method: as §1

[11] = compound: CN(C)CC(=O)Nc1ccc2[nH]c(=O)c3ccccc3c2c1
Summary of the method: as §1

rosiglitazone = compound: CN(CCOC1=CC=C(C=C1)C[C@H]2C(=O)NC(=O)S2)C3=CC=CC=N3 (racemic) [rosiglitazone]
Summary of the method: as §1

[12] = compound: CN1C2=C(C3=C1C(=O)N(N=C3)CC4=CC(=CC=C4)N)SC(=C2)S(=O)C
Summary of the method: as §1

[13] = compound: CN1CCC(CNc2ccc3ncc(-c4cccc(OC(F)(F)F)c4)n3n2)CC1
Summary of the method: as §1

Measured: log2 fold change

COX19 (UniProt Q49B96)
inactive: [1] -0.046 | [2] 0.004 | [3] 0.008 | [4] -0.039 | Nexturastat A -0.016 | vemurafenib 0.025 | [5] -0.026 | [6] -0.063 | givinostat -0.007 | barasertib 0.006 | [7] 0.021 | volasertib 0.091 | [8] 0.006 | epoxomicin 0.01 | [9] 0.049 | [10] 0.02 | [11] -0.032 | rosiglitazone 0.047 | [12] -0.028 | [13] -0.07

COPZ1 isoform 4 (UniProt P61923)
inactive: [1] 0.023 | [2] -0.045 | [3] 0.023 | [4] -0.024 | Nexturastat A -0.004 | vemurafenib 0.051 | [5] 0.035 | [6] -0.007 | givinostat -0.039 | barasertib 0.092 | [7] -0.029 | volasertib -0.135 | [8] -0.009 | epoxomicin 0.124 | [9] 0.029 | [10] -0.035 | [11] 0.057 | rosiglitazone -0.02 | [12] -0.062 | [13] 0.071

COMTD1 (UniProt Q86VU5)
inactive: [1] 0.034 | [2] 0.016 | [3] 0.004 | [4] 0.068 | Nexturastat A 0.013 | vemurafenib 0.008 | [5] -0.032 | [6] -0.016 | givinostat -0.089 | barasertib 0.089 | [7] -0.053 | volasertib -0.018 | [8] 0.004 | epoxomicin -0.074 | [9] -0.08 | [10] -0.045 | [11] 0.031 | rosiglitazone -0.021 | [12] -0.105 | [13] -0.009

CPSF7 isoform 3 (UniProt Q8N684)
inactive: [1] 0.015 | [2] 0.001 | [3] 0.014 | [4] 0.012 | Nexturastat A -0.003 | vemurafenib 0.018 | [5] 0.007 | [6] -0.016 | givinostat 0.01 | barasertib -0.044 | [7] 0.077 | volasertib 0.039 | [8] 0.053 | epoxomicin -0.042 | [10] -0.015 | [11] -0.014 | [12] -0.001 | [13] 0.006

CSE1L (UniProt P55060)
active: [7] -0.209 | volasertib -0.403
inactive: [1] 0.021 | [2] -0.006 | [3] 0.068 | [4] 0.083 | Nexturastat A -0.068 | vemurafenib 0.029 | [5] 0.063 | [6] 0.009 | givinostat 0.004 | barasertib 0.042 | [8] 0.047 | epoxomicin 0.03 | [10] -0.068 | [11] 0.008 | [12] -0.095 | [13] -0.181

CORO1A (UniProt P31146)
inactive: [1] 0.046 | [2] -0.047 | [3] 0 | [4] -0.012 | Nexturastat A 0.021 | vemurafenib 0.081 | [5] -0.023 | [6] 0 | givinostat 0.052 | barasertib 0.051 | [7] -0.017 | volasertib -0.172 | [8] 0.069 | epoxomicin 0.009 | [9] -0.006 | [10] -0.025 | [11] 0.021 | rosiglitazone 0.015 | [12] -0.106 | [13] -0.132

CSNK2A2 (UniProt P19784)
active: [13] -0.244
inactive: [1] -0.037 | [2] 0.009 | [3] 0.021 | [4] 0.005 | Nexturastat A 0.004 | vemurafenib 0 | [5] 0.08 | [6] -0.035 | givinostat 0.03 | barasertib 0.003 | [7] -0.053 | volasertib -0.122 | [8] 0.028 | epoxomicin 0.029 | [10] -0.043 | [11] -0.006 | [12] -0.038

COPS4 (UniProt Q9BT78)
inactive: [1] -0.001 | [2] -0.019 | [3] 0.019 | [4] 0.033 | Nexturastat A -0.062 | vemurafenib 0.049 | [5] 0.071 | [6] -0.037 | givinostat -0.025 | barasertib -0.002 | [7] -0.045 | volasertib -0.007 | [8] 0.013 | epoxomicin 0.047 | [10] -0.022 | [11] 0.023 | [12] -0.092 | [13] -0.007

COPS3 (UniProt Q9UNS2)
inactive: [1] -0.008 | [2] -0.013 | [3] 0.009 | [4] 0.034 | Nexturastat A -0.02 | vemurafenib 0.004 | [5] 0.011 | [6] -0.044 | givinostat -0.056 | barasertib 0.016 | [7] 0.001 | volasertib -0.017 | [8] -0.001 | epoxomicin 0.054 | [10] -0.014 | [11] -0.017 | [12] -0.038 | [13] -0.03

CPNE1 (UniProt Q99829)
inactive: [1] -0.013 | [2] 0.027 | [3] 0.002 | [4] 0.018 | Nexturastat A -0.088 | vemurafenib 0.015 | [5] 0.003 | [6] -0.089 | givinostat 0.003 | barasertib 0.008 | [7] -0.018 | volasertib -0.035 | [8] -0.012 | epoxomicin 0.049 | [9] -0.004 | [10] -0.102 | [11] -0.032 | rosiglitazone 0.018 | [12] -0.055 | [13] 0.063

COX15 (UniProt Q7KZN9)
inactive: [1] 0.05 | [2] 0.024 | [3] 0.001 | [4] 0.003 | Nexturastat A -0.113 | vemurafenib 0.005 | [5] 0.015 | [6] -0.077 | givinostat -0.008 | barasertib 0.009 | [7] 0.057 | volasertib 0.023 | [8] -0.037 | epoxomicin -0.018 | [10] 0.021 | [11] 0.006 | [12] -0.044 | [13] -0.015

COQ3 (UniProt Q9NZJ6)
inactive: [1] 0.03 | [2] -0.048 | [3] -0.004 | [4] 0.008 | Nexturastat A -0.074 | vemurafenib 0.069 | [5] 0.026 | [6] 0 | givinostat 0.086 | barasertib -0.032 | [7] 0.022 | volasertib -0.028 | [8] 0.003 | epoxomicin 0.006 | [9] -0.112 | [10] -0.104 | [11] -0.06 | rosiglitazone 0.077 | [12] -0.017 | [13] -0.154

CRYZ (UniProt Q08257)
inactive: [1] 0.007 | [2] -0.005 | [3] 0.02 | [4] 0.001 | Nexturastat A -0.033 | vemurafenib -0.027 | [5] 0.004 | [6] -0.051 | givinostat -0.009 | barasertib -0.036 | [7] 0.007 | volasertib 0.027 | [8] -0.02 | epoxomicin 0.005 | [9] 0.013 | [10] 0.011 | [11] 0.007 | rosiglitazone 0.008 | [12] -0.082 | [13] 0.008

Retrieved one by one from the entries so far, two records:
CRYZ (UniProt Q08257)
inactive: [1] 0.007 | [2] -0.005 | [3] 0.02 | [4] 0.001 | Nexturastat A -0.033 | vemurafenib -0.027 | [5] 0.004 | [6] -0.051 | givinostat -0.009 | barasertib -0.036 | [7] 0.007 | volasertib 0.027 | [8] -0.02 | epoxomicin 0.005 | [9] 0.013 | [10] 0.011 | [11] 0.007 | rosiglitazone 0.008 | [12] -0.082 | [13] 0.008

COQ3 (UniProt Q9NZJ6)
inactive: [1] 0.03 | [2] -0.048 | [3] -0.004 | [4] 0.008 | Nexturastat A -0.074 | vemurafenib 0.069 | [5] 0.026 | [6] 0 | givinostat 0.086 | barasertib -0.032 | [7] 0.022 | volasertib -0.028 | [8] 0.003 | epoxomicin 0.006 | [9] -0.112 | [10] -0.104 | [11] -0.06 | rosiglitazone 0.077 | [12] -0.017 | [13] -0.154

Continuation.

COMMD2 (UniProt Q86X83)
inactive: [1] -0.014 | [2] -0.051 | [3] 0.007 | [4] 0.035 | Nexturastat A 0.022 | vemurafenib 0.023 | [5] 0.159 | [6] 0.019 | givinostat 0.11 | barasertib 0.053 | [7] -0.004 | volasertib -0.264 | [8] 0.07 | epoxomicin -0.088 | [10] -0.005 | [11] -0.108 | [12] 0 | [13] -0.209

CREBBP (UniProt Q92793)
inactive: [1] 0.007 | [2] -0.015 | [3] 0.002 | [4] 0.016 | Nexturastat A -0.044 | vemurafenib 0.022 | [5] 0.022 | [6] -0.01 | givinostat -0.058 | barasertib 0.023 | [7] 0 | volasertib -0.024 | [8] 0.086 | epoxomicin 0.055 | [9] -0.043 | [10] -0.124 | [11] 0.045 | rosiglitazone 0.073 | [12] -0.067 | [13] 0.05
